The test system of this data set is HLA-E. As to the kind of experiment: Blue native gel (BNG) analysis of HLA-E after peptide exchange. More on the design: species or system human.

Like-named read-outs stand apart in the source and are kept apart here.

Take VMAPRTVLL [VL9, reference compound]: the “blue native gel band form” value (HLA-E pre-refolded with UV-sensitive VL9 variant, 3 h on ice with 12 M excess test peptide, 4-16% Native-PAGE) was “single compact gel band”.

As to SQAPLPCVL [BZLF1], the “blue native gel band form” value is on record as “Two band forms”.

Source of the values: paper PMC9380258, “Primary and secondary functions of HLA-E are determined by stability and conformation of the peptide-bound complexes” (Cell Reports, 2022).
